# Measured values published in paper PMC3174942.
# Sequences of proteins named here, by UniProt entry; tags and fusion partners are left off. A change or cut given only in a name is not applied to a line headed by its entry.
# UniProt P19793: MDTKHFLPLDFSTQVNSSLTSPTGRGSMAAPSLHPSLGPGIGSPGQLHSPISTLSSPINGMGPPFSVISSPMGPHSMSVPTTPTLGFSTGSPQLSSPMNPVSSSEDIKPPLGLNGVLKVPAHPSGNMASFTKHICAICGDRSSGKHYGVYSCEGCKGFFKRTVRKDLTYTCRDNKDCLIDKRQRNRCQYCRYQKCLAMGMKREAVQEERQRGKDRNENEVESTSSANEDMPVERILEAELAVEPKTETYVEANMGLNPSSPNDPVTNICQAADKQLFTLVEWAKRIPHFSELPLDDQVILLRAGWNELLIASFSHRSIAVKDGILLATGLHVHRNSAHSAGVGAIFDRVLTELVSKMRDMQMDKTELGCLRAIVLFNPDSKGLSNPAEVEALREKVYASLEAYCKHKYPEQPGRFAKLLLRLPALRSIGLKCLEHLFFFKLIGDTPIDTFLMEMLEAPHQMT
# UniProt Q15596: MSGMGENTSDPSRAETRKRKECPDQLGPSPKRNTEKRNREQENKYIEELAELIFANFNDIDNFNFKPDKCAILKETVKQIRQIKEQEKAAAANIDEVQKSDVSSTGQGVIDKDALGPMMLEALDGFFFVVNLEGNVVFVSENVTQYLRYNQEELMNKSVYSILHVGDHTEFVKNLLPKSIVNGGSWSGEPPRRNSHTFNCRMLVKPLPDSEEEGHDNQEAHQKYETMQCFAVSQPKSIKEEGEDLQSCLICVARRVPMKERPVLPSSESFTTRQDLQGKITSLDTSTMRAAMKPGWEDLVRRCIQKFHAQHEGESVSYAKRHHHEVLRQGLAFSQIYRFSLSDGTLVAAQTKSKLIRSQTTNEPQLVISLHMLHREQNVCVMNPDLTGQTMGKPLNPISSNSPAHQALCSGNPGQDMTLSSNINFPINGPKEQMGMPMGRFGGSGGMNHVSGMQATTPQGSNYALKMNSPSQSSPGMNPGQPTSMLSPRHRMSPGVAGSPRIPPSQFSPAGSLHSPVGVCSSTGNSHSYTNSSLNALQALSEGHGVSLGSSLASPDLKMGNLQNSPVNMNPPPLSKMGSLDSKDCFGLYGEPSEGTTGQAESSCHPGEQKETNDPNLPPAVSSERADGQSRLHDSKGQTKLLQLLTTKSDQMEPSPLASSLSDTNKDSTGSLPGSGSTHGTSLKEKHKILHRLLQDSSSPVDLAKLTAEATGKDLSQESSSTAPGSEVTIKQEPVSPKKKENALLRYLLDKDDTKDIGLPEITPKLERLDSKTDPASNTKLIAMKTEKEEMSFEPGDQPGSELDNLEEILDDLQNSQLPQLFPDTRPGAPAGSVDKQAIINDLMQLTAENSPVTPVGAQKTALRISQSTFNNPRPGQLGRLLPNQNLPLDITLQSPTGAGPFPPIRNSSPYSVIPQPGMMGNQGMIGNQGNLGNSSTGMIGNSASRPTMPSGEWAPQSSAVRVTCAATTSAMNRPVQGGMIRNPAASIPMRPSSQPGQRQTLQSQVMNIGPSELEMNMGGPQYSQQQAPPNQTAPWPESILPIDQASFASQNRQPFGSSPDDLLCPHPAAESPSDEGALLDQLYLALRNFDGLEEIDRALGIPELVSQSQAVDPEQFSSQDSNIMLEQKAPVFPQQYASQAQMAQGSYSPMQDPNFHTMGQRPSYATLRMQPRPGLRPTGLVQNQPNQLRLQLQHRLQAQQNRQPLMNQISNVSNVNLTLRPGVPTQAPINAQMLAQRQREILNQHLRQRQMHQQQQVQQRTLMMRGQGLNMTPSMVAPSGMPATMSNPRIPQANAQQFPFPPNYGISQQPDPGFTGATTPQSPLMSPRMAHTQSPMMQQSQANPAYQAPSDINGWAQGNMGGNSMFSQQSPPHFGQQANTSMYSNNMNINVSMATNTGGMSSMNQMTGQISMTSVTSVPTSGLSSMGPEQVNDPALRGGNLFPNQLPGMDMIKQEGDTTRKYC
# UniProt P41212: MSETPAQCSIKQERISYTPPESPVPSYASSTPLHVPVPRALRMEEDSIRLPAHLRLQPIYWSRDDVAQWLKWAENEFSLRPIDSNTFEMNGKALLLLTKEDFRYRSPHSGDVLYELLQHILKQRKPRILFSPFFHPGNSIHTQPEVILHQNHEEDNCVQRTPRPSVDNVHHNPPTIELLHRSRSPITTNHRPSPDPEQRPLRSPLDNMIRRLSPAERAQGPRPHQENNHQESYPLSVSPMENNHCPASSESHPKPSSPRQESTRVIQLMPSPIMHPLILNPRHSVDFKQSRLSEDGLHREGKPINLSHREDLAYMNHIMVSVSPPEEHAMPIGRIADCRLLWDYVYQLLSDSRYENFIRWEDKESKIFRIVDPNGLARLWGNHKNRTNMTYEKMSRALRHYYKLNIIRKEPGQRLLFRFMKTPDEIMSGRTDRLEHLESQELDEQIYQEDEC
# Results are given in words; binding and its absence hold for the method and conditions named. In cells and extracts the contact can be indirect. Some entries that bind do so weakly or less than the wild type.
# Target: GST-RXRα (UniProt P19793)
# Test: pull-down; GST fusion proteins from E. coli loaded on glutathione sepharose beads; 35S-methionine-labelled in vitro transcription/translation products; bound products eluted by boiling, SDS-PAGE, autoradiography; beads with non-fused GST as control; only the target purified
row,binding,Substance
1,no binding,TIF2 (from UniProt Q15596 1-1464)
2,binds,"TEL (ETV6), larger isoform starting at methionine 1 (from UniProt P41212 1-452)"
3,binds,"TEL (ETV6), shorter isoform starting at methionine 43 (from UniProt P41212 43-452)"
